# Test results from the supplement of paper PMC12595434, “Development of retinoid nuclear receptor pathway antagonists through targeting aldehyde dehydrogenase 1A3” (iScience, 2025).
# Protein sequences, listed by entry. Tags and fused reporters are not part of them. Lines headed by an entry give the natural chain unless they say otherwise; changes in a name come on top.
# UniProt P56556, whole entry: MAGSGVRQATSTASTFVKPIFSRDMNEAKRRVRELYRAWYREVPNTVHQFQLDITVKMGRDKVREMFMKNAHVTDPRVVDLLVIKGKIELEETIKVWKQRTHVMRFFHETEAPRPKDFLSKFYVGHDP
# UniProt P54687: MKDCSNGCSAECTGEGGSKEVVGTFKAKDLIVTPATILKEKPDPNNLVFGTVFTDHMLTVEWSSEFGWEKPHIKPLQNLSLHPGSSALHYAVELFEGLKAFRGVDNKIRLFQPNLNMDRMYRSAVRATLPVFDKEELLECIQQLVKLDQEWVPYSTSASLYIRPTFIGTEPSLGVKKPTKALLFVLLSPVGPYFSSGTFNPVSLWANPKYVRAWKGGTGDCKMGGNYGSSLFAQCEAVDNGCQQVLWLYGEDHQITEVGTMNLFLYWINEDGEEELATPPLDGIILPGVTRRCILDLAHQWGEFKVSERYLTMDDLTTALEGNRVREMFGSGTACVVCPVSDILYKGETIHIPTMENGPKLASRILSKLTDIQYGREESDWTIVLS
# UniProt P53365: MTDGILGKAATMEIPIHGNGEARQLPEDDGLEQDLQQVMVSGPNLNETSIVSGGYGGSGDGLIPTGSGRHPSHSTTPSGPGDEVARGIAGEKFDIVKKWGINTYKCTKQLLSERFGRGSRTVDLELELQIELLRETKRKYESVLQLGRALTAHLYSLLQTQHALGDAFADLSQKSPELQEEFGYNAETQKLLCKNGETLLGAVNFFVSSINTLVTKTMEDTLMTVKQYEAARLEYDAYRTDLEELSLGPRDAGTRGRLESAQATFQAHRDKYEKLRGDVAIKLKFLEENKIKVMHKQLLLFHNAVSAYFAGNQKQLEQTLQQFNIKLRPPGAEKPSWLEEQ
# UniProt P57682: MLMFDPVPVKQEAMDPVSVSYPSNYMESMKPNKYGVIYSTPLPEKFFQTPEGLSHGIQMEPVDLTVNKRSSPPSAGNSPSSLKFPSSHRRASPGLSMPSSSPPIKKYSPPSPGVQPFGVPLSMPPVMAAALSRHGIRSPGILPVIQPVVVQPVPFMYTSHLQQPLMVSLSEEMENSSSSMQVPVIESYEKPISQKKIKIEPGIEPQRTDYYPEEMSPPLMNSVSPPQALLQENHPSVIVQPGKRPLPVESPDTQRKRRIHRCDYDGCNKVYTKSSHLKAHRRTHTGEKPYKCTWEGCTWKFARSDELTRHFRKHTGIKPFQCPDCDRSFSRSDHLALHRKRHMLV
# UniProt P63241: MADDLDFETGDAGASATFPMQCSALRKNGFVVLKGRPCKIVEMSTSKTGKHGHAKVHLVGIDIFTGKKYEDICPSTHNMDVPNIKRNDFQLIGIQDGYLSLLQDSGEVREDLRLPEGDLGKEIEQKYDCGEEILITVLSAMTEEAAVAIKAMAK
# UniProt P61009: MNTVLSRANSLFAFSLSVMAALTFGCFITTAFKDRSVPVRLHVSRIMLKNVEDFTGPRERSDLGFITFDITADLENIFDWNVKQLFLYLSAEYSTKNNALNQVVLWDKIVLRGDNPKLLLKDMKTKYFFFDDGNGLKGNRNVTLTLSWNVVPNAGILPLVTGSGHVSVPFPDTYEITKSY
# UniProt P61970, whole entry: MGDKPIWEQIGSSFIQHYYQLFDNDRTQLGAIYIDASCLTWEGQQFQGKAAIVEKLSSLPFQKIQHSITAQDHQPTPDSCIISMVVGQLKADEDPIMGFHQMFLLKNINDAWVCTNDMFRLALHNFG
# UniProt P54577: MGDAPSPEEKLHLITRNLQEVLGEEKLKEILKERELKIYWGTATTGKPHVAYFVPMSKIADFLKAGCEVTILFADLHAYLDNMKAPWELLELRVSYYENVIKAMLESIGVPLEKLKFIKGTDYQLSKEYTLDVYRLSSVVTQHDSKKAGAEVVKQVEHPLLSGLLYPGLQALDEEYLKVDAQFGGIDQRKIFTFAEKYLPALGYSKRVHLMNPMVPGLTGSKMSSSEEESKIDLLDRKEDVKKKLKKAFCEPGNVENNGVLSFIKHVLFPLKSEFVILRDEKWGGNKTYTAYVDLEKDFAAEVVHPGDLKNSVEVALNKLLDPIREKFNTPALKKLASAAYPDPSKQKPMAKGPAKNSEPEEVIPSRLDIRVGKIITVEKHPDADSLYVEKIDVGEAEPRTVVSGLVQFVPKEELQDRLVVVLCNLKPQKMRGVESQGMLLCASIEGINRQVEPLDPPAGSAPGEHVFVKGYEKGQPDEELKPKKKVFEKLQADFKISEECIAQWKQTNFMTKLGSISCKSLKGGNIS
# UniProt P63010: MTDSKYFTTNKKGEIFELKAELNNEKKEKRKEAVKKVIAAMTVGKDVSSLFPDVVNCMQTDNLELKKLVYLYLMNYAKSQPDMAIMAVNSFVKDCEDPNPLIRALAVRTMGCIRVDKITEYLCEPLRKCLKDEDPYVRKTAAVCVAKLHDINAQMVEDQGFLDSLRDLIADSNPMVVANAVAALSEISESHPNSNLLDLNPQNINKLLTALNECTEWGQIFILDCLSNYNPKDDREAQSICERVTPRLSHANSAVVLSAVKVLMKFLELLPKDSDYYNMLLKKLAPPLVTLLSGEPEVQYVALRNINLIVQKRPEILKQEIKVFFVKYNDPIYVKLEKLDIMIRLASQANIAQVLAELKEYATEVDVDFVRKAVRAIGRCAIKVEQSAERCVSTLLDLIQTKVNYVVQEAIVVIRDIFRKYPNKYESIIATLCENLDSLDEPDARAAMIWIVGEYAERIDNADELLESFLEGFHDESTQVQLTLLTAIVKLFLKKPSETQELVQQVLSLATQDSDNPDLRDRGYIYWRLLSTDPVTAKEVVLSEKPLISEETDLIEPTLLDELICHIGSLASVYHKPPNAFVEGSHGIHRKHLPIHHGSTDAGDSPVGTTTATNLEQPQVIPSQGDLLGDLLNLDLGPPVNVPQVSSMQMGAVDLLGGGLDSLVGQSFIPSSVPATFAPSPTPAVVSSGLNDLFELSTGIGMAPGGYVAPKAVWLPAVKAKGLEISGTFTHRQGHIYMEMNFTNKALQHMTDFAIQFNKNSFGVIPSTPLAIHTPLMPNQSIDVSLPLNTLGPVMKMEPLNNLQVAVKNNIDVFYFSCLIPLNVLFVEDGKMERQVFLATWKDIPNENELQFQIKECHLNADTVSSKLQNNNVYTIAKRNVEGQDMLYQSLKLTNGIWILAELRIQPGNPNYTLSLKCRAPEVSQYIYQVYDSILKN
# UniProt P53611: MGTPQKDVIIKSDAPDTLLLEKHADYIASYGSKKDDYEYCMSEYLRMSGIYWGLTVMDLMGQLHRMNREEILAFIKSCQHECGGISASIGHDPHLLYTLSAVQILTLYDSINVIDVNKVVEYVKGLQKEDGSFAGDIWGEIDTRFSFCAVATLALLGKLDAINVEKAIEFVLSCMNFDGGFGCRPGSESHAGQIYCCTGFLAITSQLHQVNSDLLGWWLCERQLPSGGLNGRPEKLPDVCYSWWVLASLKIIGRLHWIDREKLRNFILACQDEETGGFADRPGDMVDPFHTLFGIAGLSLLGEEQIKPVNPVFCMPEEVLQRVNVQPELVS
# UniProt P63151: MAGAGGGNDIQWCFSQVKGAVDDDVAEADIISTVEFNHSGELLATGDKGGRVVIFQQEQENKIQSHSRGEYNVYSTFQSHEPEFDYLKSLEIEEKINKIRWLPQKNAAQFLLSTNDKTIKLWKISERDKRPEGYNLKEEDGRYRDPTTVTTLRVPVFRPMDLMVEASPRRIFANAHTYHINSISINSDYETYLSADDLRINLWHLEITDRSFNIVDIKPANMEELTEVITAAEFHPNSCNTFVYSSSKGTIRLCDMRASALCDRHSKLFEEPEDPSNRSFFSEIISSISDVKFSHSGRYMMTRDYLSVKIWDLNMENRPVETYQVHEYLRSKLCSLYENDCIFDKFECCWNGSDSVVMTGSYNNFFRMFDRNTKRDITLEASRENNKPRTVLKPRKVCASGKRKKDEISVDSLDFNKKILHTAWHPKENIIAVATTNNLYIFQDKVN
# UniProt P68036, whole entry: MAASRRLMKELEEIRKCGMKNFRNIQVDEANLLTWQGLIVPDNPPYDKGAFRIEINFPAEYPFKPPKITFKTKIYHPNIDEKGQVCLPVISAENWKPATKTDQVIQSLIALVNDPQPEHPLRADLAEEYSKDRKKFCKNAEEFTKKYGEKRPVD
# UniProt P56377: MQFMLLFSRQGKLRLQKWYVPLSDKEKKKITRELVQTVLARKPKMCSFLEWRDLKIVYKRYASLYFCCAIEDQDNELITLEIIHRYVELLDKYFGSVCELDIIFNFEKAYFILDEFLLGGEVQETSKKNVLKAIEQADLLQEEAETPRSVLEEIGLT
# UniProt P55061, whole entry: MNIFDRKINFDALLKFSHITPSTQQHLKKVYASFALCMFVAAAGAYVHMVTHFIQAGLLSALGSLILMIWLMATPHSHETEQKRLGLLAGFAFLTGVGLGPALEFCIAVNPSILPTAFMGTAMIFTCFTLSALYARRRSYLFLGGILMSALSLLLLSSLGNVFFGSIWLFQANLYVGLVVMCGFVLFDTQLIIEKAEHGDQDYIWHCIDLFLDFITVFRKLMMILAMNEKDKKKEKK
# UniProt P52565: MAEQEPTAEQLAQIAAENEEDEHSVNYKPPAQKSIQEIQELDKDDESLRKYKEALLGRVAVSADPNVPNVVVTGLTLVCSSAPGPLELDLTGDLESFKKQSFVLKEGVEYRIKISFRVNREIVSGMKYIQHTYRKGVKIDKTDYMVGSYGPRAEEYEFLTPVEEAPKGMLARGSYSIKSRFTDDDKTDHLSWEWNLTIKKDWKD
# UniProt P63165, whole entry: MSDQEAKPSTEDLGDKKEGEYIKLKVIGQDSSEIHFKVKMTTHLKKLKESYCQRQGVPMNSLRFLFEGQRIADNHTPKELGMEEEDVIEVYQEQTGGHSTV
# UniProt P62380: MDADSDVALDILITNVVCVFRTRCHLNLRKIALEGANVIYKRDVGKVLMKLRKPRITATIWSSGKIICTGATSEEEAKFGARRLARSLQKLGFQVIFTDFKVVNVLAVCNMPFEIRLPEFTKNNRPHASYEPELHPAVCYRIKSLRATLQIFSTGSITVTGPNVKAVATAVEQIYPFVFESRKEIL
# UniProt P52564: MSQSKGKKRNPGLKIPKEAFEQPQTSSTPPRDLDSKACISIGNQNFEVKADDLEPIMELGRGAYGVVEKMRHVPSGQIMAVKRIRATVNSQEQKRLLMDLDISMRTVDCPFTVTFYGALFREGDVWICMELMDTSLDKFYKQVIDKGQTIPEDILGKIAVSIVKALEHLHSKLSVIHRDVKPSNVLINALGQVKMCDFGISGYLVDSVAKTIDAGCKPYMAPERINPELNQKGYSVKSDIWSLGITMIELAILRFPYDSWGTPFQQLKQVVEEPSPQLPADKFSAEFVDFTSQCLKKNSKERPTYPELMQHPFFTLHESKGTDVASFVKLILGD
# UniProt P53004: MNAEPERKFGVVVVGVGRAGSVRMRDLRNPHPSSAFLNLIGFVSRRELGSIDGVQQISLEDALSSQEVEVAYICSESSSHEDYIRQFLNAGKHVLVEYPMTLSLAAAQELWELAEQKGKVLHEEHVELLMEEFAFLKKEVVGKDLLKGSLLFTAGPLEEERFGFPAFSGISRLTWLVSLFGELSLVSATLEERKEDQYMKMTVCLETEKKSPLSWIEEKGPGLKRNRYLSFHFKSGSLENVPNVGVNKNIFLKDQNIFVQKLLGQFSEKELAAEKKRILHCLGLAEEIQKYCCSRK
# UniProt P57105: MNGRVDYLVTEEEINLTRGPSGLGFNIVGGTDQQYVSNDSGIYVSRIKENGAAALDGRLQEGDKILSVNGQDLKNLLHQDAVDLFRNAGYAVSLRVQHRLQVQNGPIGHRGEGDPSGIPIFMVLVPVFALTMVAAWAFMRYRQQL
# UniProt P62191: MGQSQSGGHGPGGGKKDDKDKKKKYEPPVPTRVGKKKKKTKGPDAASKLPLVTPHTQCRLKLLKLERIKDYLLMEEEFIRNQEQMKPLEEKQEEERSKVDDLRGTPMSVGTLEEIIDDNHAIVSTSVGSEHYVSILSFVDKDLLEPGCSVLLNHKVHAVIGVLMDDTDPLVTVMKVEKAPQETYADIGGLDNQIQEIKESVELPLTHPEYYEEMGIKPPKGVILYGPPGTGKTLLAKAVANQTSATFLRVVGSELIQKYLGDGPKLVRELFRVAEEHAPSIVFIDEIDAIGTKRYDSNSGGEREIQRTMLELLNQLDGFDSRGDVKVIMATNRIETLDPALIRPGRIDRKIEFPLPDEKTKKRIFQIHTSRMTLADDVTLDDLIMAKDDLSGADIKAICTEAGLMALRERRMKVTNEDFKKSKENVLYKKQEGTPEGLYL
# This is one part of the list. The data scatter; read single values as rough.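 Tm was set to 64 °C where no melting was found, and many curves are irregular.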
# Compound: CCc1cnccc1C(=O)Nc1cc2c(cc1F)NC(=O)CC2
# Assay: melting temperature shift (DMSO Tm minus MBE1-treated Tm) in cellular thermal proteome profiling; higher = less thermal stabilization by MBE1 (negative = stabilized by MBE1)
# Conditions: A375
Target,melting temperature shift (MBE1 concentration: 100 nM),melting temperature shift (MBE1 concentration: 1 uM)
RPS18 (UniProt P62269),-0.556 °C,0.393 °C
NDUFA6 (UniProt P56556),0.44 °C,0.128 °C
UniProt P54687,-1.19 °C,-0.472 °C
RPL11 (UniProt P62913),-1.46 °C,-0.551 °C
ARFIP2 (UniProt P53365),-0.458 °C,-0.00611 °C
UniProt P57682,-0.912 °C,-6.08 °C
EIF5A (UniProt P63241),-0.22 °C,-0.635 °C
SPCS3 (UniProt P61009),-0.543 °C,0.154 °C
NUTF2 (UniProt P61970),-0.838 °C,0.353 °C
UniProt P53804,-0.226 °C,-0.623 °C
YARS (UniProt P54577),-0.245 °C,0.0988 °C
AP2B1 (UniProt P63010),-0.735 °C,0.256 °C
RABGGTB (UniProt P53611),1.17 °C,0.336 °C
PPP2R2A (UniProt P63151),-0.641 °C,0.25 °C
UBE2L3 (UniProt P68036),-0.557 °C,0.562 °C
UniProt P56377,0.232 °C,-1.29 °C
RPS15 (UniProt P62841),-0.476 °C,0.996 °C
UniProt P55061,0.0805 °C,-0.329 °C
ARHGDIA (UniProt P52565),-0.168 °C,-0.259 °C
SUMO1 (UniProt P63165),0.0518 °C,0.376 °C
UniProt P62380,0.788 °C,-0.0122 °C
MAP2K6 (UniProt P52564),-0.281 °C,0.409 °C
BLVRA (UniProt P53004),-0.376 °C,0.838 °C
SYNJ2BP (UniProt P57105),-0.0855 °C,-0.165 °C
PSMC1 (UniProt P62191),-0.463 °C,0.951 °C

# Complete entries as entered above.
# UBE2L3 (UniProt P68036) in the list: melting temperature shift (MBE1 concentration: 100 nM): -0.557 °C; melting temperature shift (MBE1 concentration: 1 uM): 0.562 °C
# AP2B1 (UniProt P63010) in the list: melting temperature shift (MBE1 concentration: 100 nM): -0.735 °C; melting temperature shift (MBE1 concentration: 1 uM): 0.256 °C
